## Library screening results

Measurements from “University of Dundee, Small-Polar-MMV Screening Library” (2021), ChEMBL document CHEMBL3988442.

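Viability assay of Plasmodium falciparum sporozoites; the read-out is not stated. The concentration is filed as 10 mM, unlikely as a test dose, so the dose is not known. Direction is inferred from retests: higher values go with lower viability. Strong results were mostly tested again. Size under these conditions: about 34,000 compounds, about 280 of them at 50% or above in at least one test.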

The filed quantity is “Percent Effect” (%). How 0% and 100% were set is not recorded. Most values in the screen are low, and negative values occur. The compounds are a random part of those screened. Two or more numbers in one place are separate tests of the same structure; such repeats can differ widely.

| # | compound | Percent Effect |
|---|---|---|
| 1 | `COC(=O)NCC(=O)NC1(C)CCc2ccccc2C1` (centres unmarked) | 11.85 |
| 2 | `CN1C[C@@H](C(=O)NC2CC2)[C@@]2(COc3ccc(F)cc3C2=O)C1` | 8.296 |
| 3 | `Cc1ccc(-c2nc(CNCC3CN(C)CCO3)co2)cc1` (centres unmarked) | 0.03503 |
| 4 | `c1cnc(OCc2nnc3n2CCN(CC2CCOCC2)C3)nc1` | 5.353 |
| 5 | `N#Cc1cc(CSCCN2CCOCC2)ccc1F` | -0.9858 |
| 6 | `N#CC1(NC(=O)CNCCn2cccn2)CCCCC1` | -2.664 |
| 7 | `CCSc1ncc(Cl)c(C(=O)NC(CCSC)C(=O)O)n1` (centres unmarked) | 18.09 |
| 8 | `Cc1nc(CN2CCOC(Cn3cncn3)C2)nc2ccccc12` (centres unmarked) | 1.85 and -1.802 and -10.11 |
| 9 | `CCN1CCC2(CC1)CC(NC(=O)NC)c1cc(C)ccc12.O=C(O)C(F)(F)F` (centres unmarked) | 4.221 |
| 10 | `COc1cc(CN(C)[C@@H]2COC[C@H]2c2ccc(F)cc2)cc(OC)c1.O=C(O)CC(O)(CC(=O)O)C(=O)O` | 11.74 |
| 11 | `Cc1nccnc1N1CC[C@@H](NC(=O)c2cnccn2)[C@H](O)C1` | 0.8235 |
| 12 | `Cc1cccc(C(CNC(=O)NCc2cc[nH]n2)N2CCOCC2)c1` (centres unmarked) | 7.313 |
| 13 | `CC(C)c1nc(C2CCCN(C(=O)CCc3cscn3)C2)no1` (centres unmarked) | 11.38 |
| 14 | `CC(Nc1ccc(CN2CCCC2=O)cc1)C(=O)N(C)CCC#N` (centres unmarked) | 3.448 |
| 15 | `Cc1cc(C)nc(C2CCCN2C(=O)c2coc(C)n2)n1` (centres unmarked) | -2.11 |
| 16 | `CC(C)N(Cc1ccc(C#N)cc1)C(=O)Nc1ccccn1` | 13.9 |
| 17 | `O=C(O)C(F)(F)F.[H][C@@]12CO[C@@H](CNC(=O)c3nccn3C)[C@]1([H])CCN(C)C2` | -0.08518 |
| 18 | `CC(=O)N(Cc1noc(C2CC2)n1)C1CCN(Cc2ccccc2)C1` (centres unmarked) | 23.79 |
| 19 | `Cc1cccc(N2CCN(C(=O)NC(C)c3nncn3C)CC2)c1C` (centres unmarked) | 4.798 |
| 20 | `O=C(NCc1cccnc1)N1CCC2(CC(=O)N(c3ccsc3)C2)C1.O=C(O)C(F)(F)F` (centres unmarked) | -5.054 |
| 21 | `CC(C)(C)c1c[nH]c([C@@H]2COCCN2C2CCCCC2)n1` | 3.326 and 4.826 |
| 22 | `CCS(=O)(=O)NCC(=O)Nc1cc(CC(C)(C)C)n[nH]1` | -6.128 |
| 23 | `COCC1CN(C(=O)Cc2ccsc2)Cc2c1cnn2C` (centres unmarked) | 16.23 |
| 24 | `Cc1nccnc1CN1CCC2(CCCN(C3CCOCC3)C2=O)C1` (centres unmarked) | -14.5 |
| 25 | `CC(=O)NCCNC(=O)Nc1ccc(Br)cc1C(C)C` | -12.63 |
| 26 | `CC(C)(C)CN1CCCC12CCN(S(=O)(=O)c1ccccc1)C2.O=C(O)C(F)(F)F` (centres unmarked) | 18.81 |
| 27 | `CC(C)Nc1nc(N2CCCC2)nc2c1CN(c1ncc(F)cn1)CC2` | -4.237 and 10.63 and 9.106 |
| 28 | `OCCNc1nccc(-c2c[nH]nc2-c2ccncc2)n1` | 5.843 |
| 29 | `Cc1nccn1-c1cncc(C2CCCN2Cc2cccnc2)n1` (centres unmarked) | 1.841 |
| 30 | `c1nc2n(n1)CC(NCc1nc(-c3ccsc3)no1)CC2` (centres unmarked) | -2.391 and -12.61 and -2.917 |
| 31 | `O=C(N1CCCC1)N1CCC2(CCCN(CCOc3ccccc3)C2)C1.O=C(O)C(F)(F)F` (centres unmarked) | -1.943 |
| 32 | `Cc1noc(C(C)C)c1C(=O)NCCN1CCOCC1` | -0.5114 |
| 33 | `O=C(O)C(F)(F)F.[H][C@@]12COC[C@]1([H])[C@@H](OCC1CC1)CN2Cc1nccs1` | 12.43 |
| 34 | `CCCn1nc2c(cc1=O)CN(Cc1ncc(C(C)(C)C)o1)CC2` | 11.72 |
| 35 | `[H][C@@]12CS(=O)(=O)C[C@]1([H])N(Cc1ccc(CCC)o1)CCN2C(=O)CC(C)C` | 4.236 |
| 36 | `Cc1ccc(-n2ccnc2)c(C(=O)NCCOCC(F)(F)F)c1` | 8.348 |
| 37 | `COCc1nc(CNC2CCN(C(C)C)CC2)no1` | -2.315 |
| 38 | `CCc1[nH]ncc1C(=O)N1CCCN(Cc2nccn2C(C)C)CC1` | 6.61 |
| 39 | `CCc1nnc2n1CCN(Cc1ncc(-c3ccc(Cl)cc3)o1)C2` | -2.416 |
| 40 | `CCS(=O)(=O)NCC1Cn2nnc(-c3ccccc3)c2CO1` (centres unmarked) | -8.767 |
| 41 | `CN(C)C(=O)c1cc2c(nc1NCC1CC1)CCNCC2` | 15.88 |
| 42 | `Cc1noc(C)c1CN1Cc2ccnn2CC(C(=O)NCC2CC2)C1.O=C(O)C(F)(F)F.O=C(O)C(F)(F)F` (centres unmarked) | 14.81 |
| 43 | `Cc1ccn(-c2cncc(C(N)=O)c2)n1` | -10.02 and -4.034 |
| 44 | `O=C(c1ccc(=O)[nH]n1)N1CCNCC1c1ccccc1` (centres unmarked) | 7.368 |
| 45 | `COc1ncc(NC(=O)Nc2cc(C)ccc2OC)cn1` | -10.39 |
| 46 | `COc1ccccc1CN(Cc1cccnc1)CC1CCCO1.O=C(O)CC(O)(CC(=O)O)C(=O)O` (centres unmarked) | 15.9 |
| 47 | `COC(=O)C(NC(=O)C1CCCC1)c1cc(F)ccc1F` (centres unmarked) | 3.307 |
| 48 | `O=C(O)C(F)(F)F.O=C(O)C(F)(F)F.[H][C@@]12CCC(=O)N(c3cnn(C)c3)[C@]1([H])CCN2Cc1ccncc1` | -5.952 |
| 49 | `CCOc1ccnc(N2CCN(C(=O)c3cccnc3)CC2)n1` | -0.4488 |
| 50 | `COCC1CN(CC2CC2)Cc2nccn2C1.O=C(O)C(F)(F)F` (centres unmarked) | -6.302 |
| 51 | `CC(C)(C)CN1CC(COc2ccccc2)Oc2ccncc2S1(=O)=O` (centres unmarked) | 7.177 |
| 52 | `O=C(c1cnccn1)N1CCC2(CCN(Cc3ccsc3)CC2)CC1` | 19.56 |
| 53 | `CC(C)NC(=O)C1(Cc2ccccc2-c2cccs2)CCNC1` (centres unmarked) | 7.147 |
| 54 | `CN(c1cccnn1)C1CCN(C(=O)c2ccc3c(c2)COC3)CC1` | -3.107 |
| 55 | `CC(C)CC(=O)N1CCC2(CC1)OC(C(N)=O)Cn1ccnc12.O=C(O)C(F)(F)F` (centres unmarked) | 1.864 |
| 56 | `O=C(Cn1nc2ccccc2n1)N1CCCC(O)(CO)C1` (centres unmarked) | -17.46 and -14.03 |
| 57 | `Cc1cnn(CC2CN(CCc3ccncc3)CCO2)c1` (centres unmarked) | -4.604 |
| 58 | `COc1ccc(C2(NC(=O)CCn3cncn3)CCCCC2)cc1` | -14.1 |
| 59 | `COc1cccc(Nc2nc(C3CCCNC3)c3sc(C)c(C)n23)c1.Cl` (centres unmarked) | 4.856 and 5.657 and 12.75 |
| 60 | `Cc1cnn(C2CCCN(C(=O)c3cn4ccccc4n3)C2)c1` (centres unmarked) | 8.071 |
| 61 | `CCOc1ccccc1-c1noc(CN(C)Cc2cnn(C)c2)n1` | -6.706 |
| 62 | `Cc1c(C(=O)N2CCCC(n3cccn3)C2)nnn1-c1ccccc1` (centres unmarked) | 6.507 |
| 63 | `[H][C@]12CC[C@]([H])(CN(Cc3ccccc3C#N)C1)N(Cc1cscn1)C2=O` | -2.941 |
| 64 | `O=C(O)C(F)(F)F.O=C(O)C(F)(F)F.[H][C@@]12C[C@@H](OCc3cccnc3)CN1CCN(C(=O)c1ccnnc1)C2` | 18.64 |
| 65 | `Cn1cncc1CN1CCC2(CC1)COCCN(S(C)(=O)=O)C2.O=C(O)C(F)(F)F` | -2.483 |
| 66 | `Cc1c(F)cc(C(=O)O)cc1S(=O)(=O)Nc1ccc2c(c1)OCCO2` | 59.81 and 58.05 and 66.51 |
| 67 | `Cc1ccc(C(=O)N2CCC(Oc3ccc(F)cc3F)CC2)c(=O)[nH]1` | 13.69 |
| 68 | `Cc1cc(C)n(CC2CN(Cc3ccccn3)CCO2)n1` (centres unmarked) | 1.241 |
| 69 | `CCN1CCCC(O)(c2nc(C)c(CCOc3ccc(F)cc3)s2)CC1` (centres unmarked) | 19.04 |
| 70 | `Cc1nc(C2CCCN2C(=O)Cc2ccc(F)cc2)nc(O)c1C` (centres unmarked) | -0.03121 |
| 71 | `Cc1ccc(CNC2CCCN(Cc3noc(C4CC4)n3)C2)s1` (centres unmarked) | 14.12 |
| 72 | `O=C(C1CCOC1)N1CCC2(CC1)CN(c1ncccn1)CCO2.O=C(O)C(F)(F)F` (centres unmarked) | -2.17 |
| 73 | `CSc1ccc(CCN2CCN([C@H]3CCCC[C@@H]3O)CC2)cc1` | -9.692 |
| 74 | `CC/N=c1\nc(NCC)nc2n1C(O)(Nc1cccc(C)c1C)CS2` (centres unmarked) | -13.62 and 2.28 |
| 75 | `CN1CCN(C2CCN(CC(=O)NCC(F)(F)F)CC2)C1=O` | -1.727 |
| 76 | `O=C1C(NCc2nnc3n2CCCC3)CCCN1c1ccccc1` (centres unmarked) | 6.53 |
| 77 | `CCCc1cc(C(=O)N2CCOC(c3nc(-c4cccs4)no3)C2)no1` (centres unmarked) | -8.023 and -4.005 and -18.86 |
| 78 | `O=S(=O)(c1ccc(F)cc1)N1CCCC(c2nccs2)C1` (centres unmarked) | 0.1561 |
| 79 | `CCN(CC)c1ccc(NS(=O)(=O)c2cncc(F)c2)cn1` | -4.584 |
| 80 | `O=C(O)C(F)(F)F.[H][C@@]12CN(Cc3nccs3)C[C@H](C(=O)NCC3CC3)[C@]1([H])CCO2` | -2.865 |

The first 9 entries again:

- COC(=O)NCC(=O)NC1(C)CCc2ccccc2C1 (centres unmarked) : 11.85%
- CN1C[C@@H](C(=O)NC2CC2)[C@@]2(COc3ccc(F)cc3C2=O)C1 : 8.296%
- Cc1ccc(-c2nc(CNCC3CN(C)CCO3)co2)cc1 (centres unmarked) : 0.03503%
- c1cnc(OCc2nnc3n2CCN(CC2CCOCC2)C3)nc1 : 5.353%
- N#Cc1cc(CSCCN2CCOCC2)ccc1F : -0.9858%
- N#CC1(NC(=O)CNCCn2cccn2)CCCCC1 : -2.664%
- CCSc1ncc(Cl)c(C(=O)NC(CCSC)C(=O)O)n1 (centres unmarked) : 18.09%
- Cc1nc(CN2CCOC(Cn3cncn3)C2)nc2ccccc12 (centres unmarked) : 1.85% and -1.802% and -10.11%
- CCN1CCC2(CC1)CC(NC(=O)NC)c1cc(C)ccc12.O=C(O)C(F)(F)F (centres unmarked) : 4.221%